No constants are given. Whether binding was seen depends on the method and setting. In cells and extracts the contact can be indirect. Some results given as binding are weak or reduced against the parent protein; the word gives no strength. Tags and fused reporters may be left off the sequences shown. Each block holds one molecule with its values, some of them ahead of it.
Target: T1, GST-tagged GGA3 (Golgi-localized γ-ear containing Arf-binding protein 3) (UniProt Q9NZ52)
T1 sequence: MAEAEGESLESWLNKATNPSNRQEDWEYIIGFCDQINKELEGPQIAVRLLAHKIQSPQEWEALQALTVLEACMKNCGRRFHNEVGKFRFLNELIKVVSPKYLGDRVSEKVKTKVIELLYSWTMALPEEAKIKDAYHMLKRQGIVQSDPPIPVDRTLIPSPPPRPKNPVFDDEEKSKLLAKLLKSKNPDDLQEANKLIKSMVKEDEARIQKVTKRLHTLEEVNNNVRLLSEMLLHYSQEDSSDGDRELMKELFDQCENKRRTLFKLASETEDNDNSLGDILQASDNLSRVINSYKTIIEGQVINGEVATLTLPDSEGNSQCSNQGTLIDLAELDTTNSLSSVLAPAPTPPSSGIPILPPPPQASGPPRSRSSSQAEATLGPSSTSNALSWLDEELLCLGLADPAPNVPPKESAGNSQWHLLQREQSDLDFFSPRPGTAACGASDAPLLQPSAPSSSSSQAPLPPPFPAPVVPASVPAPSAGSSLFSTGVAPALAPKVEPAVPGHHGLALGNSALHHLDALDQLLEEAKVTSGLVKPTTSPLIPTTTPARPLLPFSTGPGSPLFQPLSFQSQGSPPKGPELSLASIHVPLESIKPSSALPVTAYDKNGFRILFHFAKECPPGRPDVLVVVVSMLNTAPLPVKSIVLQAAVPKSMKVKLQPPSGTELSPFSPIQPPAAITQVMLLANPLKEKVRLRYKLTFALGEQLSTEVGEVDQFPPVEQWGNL
Assay: pull-down

Sequences of proteins named here, by UniProt entry; tags and fusion partners are left off.
UniProt P84078: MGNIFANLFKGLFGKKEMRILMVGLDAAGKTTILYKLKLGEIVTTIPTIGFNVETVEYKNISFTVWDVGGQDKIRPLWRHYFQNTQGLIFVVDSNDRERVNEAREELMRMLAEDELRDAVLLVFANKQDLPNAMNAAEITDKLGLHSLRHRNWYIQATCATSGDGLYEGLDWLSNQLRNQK

binding: binds
Molecule: Arf1 (endogenous, mouse embryonic fibroblasts) (from UniProt P84078 1-181)

binding: binds
B1: Arl15 (endogenous, mouse embryonic fibroblasts) (protein, UniProt Q8BGR6 1-204)
chain: MSDLRITEAFLYMDYLCFRALCCKGPPPARPEYDLVCIGLTGSGKTSLLSELCSESPENVVSTTGFSIKAVPFQNAVLNVKELGGADNIRKYWSRYYQGSQGVIFVLDSASSEDDLETARNELHSALQHPQLCTLPFLILANHQDKPAARSVQEIKKYFELEPLARGKRWILQPCSLDDVDTLKDSFSQLINLLEEKDHEAVRM
